Consider one molecule from patent publication US20050223428A1 (published 2005).

The experiment concerns the target T1, RLK5CAT-MBP (kinase domain of RLK5/HAESA fused to maltose binding protein, kinase-active) (UniProt P47735).
T1 sequence (looked up): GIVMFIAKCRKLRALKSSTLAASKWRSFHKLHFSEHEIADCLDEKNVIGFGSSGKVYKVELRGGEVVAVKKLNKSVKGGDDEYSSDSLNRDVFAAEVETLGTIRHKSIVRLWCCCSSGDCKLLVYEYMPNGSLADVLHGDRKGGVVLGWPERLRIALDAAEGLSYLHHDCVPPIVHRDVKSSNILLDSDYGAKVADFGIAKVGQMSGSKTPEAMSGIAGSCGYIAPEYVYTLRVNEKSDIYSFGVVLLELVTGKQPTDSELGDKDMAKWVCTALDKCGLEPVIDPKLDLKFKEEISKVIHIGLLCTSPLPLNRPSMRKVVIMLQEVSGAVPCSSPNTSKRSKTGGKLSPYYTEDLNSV
The experiment in a line: far-western dot blot with 32P-labelled GST-KID.

No constants are given. Whether binding was seen depends on the method and setting. Some results given as binding are weak or reduced against the parent protein; the word gives no strength. Tags and fused reporters may be left off the sequences shown.

B1: GST-KID (kinase interaction domain of Kinase-Associated Protein Phosphatase, KAPP, fused to glutathione S-transferase) (other, UniProt P46014 180-313, looked up)
chain: SWLFLEVIAGPAIGLQHAVNSTSSSKLPVKLGRVSPSDLALKDSEVSGKHAQITWNSTKFKWELVDMGSLNGTLVNSHSISHPDLGSRKWGNPVELASDDIITLGTTTKVYVRISSQNEFQIPFKIGVASDPMA
modifications: labeled with 32P
notes: Plasmid was a gift (John Walker); expressed in E. coli, purified on glutathione-Sepharose, 32P-labelled and used as the probe in the far-western dot blot; also called KAPP KID; radiolabeled KID protein; not shown: glutathione S-transferase (GST) fusion partner
B1: the binding entry is reported as “binds”.
